Results are given in words; binding and its absence hold for the method and conditions named. Binding can be weak; no strength is given. For some assays here: Binding seen in cells or lysates may run through a third protein. For some assays here: Sequences can lack the tags named with a protein.

In test [1] the target is T1, AtRING1a (Arabidopsis thaliana) (UniProt Q9FKW0).
T1 sequence: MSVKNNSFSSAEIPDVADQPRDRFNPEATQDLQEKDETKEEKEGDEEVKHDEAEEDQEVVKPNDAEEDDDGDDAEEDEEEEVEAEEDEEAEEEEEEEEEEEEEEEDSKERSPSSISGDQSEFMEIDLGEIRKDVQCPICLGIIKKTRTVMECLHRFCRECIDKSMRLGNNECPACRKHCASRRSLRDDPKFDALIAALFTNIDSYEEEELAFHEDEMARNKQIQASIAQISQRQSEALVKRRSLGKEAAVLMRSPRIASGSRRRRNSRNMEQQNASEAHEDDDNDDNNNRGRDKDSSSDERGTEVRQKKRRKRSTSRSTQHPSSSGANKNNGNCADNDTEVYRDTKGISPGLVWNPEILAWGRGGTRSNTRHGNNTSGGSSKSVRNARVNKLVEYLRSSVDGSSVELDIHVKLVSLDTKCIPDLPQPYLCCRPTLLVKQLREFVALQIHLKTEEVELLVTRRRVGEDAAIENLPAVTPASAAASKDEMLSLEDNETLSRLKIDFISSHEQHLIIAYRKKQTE
Kind of test: two-hybrid; pairwise tests of pGBKT7 and pGADT7 constructs in S. cerevisiae PJ69-4a; growth on SD lacking Leu, Trp and Ade (SD-LTA).

Test [2] concerns the target AtBMI1b-GFP (Arabidopsis thaliana). Kind of test: FRET or BRET; FLIM: GFP and RFP fusions transiently co-expressed in Nicotiana benthamiana leaves; decrease of GFP fluorescence lifetime in nuclei, more than 5% counted as interaction. For orientation: BRET reads energy transfer from a luciferase to a nearby fluorophore.
In test [3] the target is AtBMI1b (Arabidopsis thaliana). Kind of test: two-hybrid; pairwise tests of pGBKT7 and pGADT7 constructs in S. cerevisiae PJ69-4a; growth on SD lacking Leu, Trp and Ade (SD-LTA).
In test [4] the target is GST-AtBMI1a (Arabidopsis thaliana). Kind of test: pull-down; agarose beads coated with GST or GST fusion protein, incubated with total protein extracts of two-week-old transgenic Arabidopsis seedlings; Western blot with anti-FLAG or anti-GFP; only the target purified. On the technique in general: In western blotting, separated proteins are transferred to a membrane and probed.

Test [5] has as its target GST-AtBMI1b (Arabidopsis thaliana). Described as above.

Turning to AtBMI1b (Arabidopsis thaliana), the binding entry in test [1] was “binds”.

B1: RFP-AL2 (protein, UniProt Q9SRM4 1-246)
chain: MAAAAVSSNPRTVEEIFKDYSARRAALLRALTKDVDDFYSQCDPEKENLCLYGHPNESWEVNLPAEEVPPELPEPALGINFARDGMQRKDWLSLVAVHSDCWLLSVSFYFGARLNRNERKRLFSLINDLPTLFDVVTGRKAMKDNKPSSDSGSKSRNGTKRSIDGQTKSSTPKLMEESYEEEEEEDEHGDTLCGSCGGHYTNEEFWICCDVCERWYHGKCVKITPAKAESIKQYKCPPCCAKKGRQ
As to B1, in test [2], the binding result was “binds”.

B2: AL2 (protein, UniProt Q9SRM4 1-246)
chain: B1 chain
For B2, the binding result in test [3] is “binds”.

B3: AtRING1a-RFP (protein, UniProt Q9FKW0 1-522)
chain: T1 sequence
Regarding B3, in test [2], the binding entry is listed as “binds”.

B4: AL5 (protein, UniProt Q5XEM9 1-260)
chain: MEGGTAHYSPRTVEEVFRDFKGRRAGIIQALTTDVEDFFQQCDPEKQNLCLYGFPNEVWEVNLPAEEVPPELPEPALGINFARDGMQERNWLSLVAVHSDAWLLSVSFYFGSRFGFDRADRKRLFSMINEVPTVYEVVTGNAEKQTKEMPSSANQNGNRSKSNSKMRGLESKSSKTIHAKDEEEGLELEEGEEEEDEDEDEHGETLCGACGDNYASDEFWICCDMCEKWFHGECVKITPARAEHIKHYKCPTCSNKRARP
As for B4, the binding entry in test [3] is recorded as “binds”.

B5: AL6 (protein, UniProt Q8S8M9 1-256)
chain: MEGITHPIPRTVEEVFSDFRGRRAGLIKALTNDMVKFYQTCDPEKENLCLYGLPNETWEVNLPVEEVPPELPEPALGINFARDGMQEKDWVSLVAVHSDSWLLSVAFYFGARFGFGKNERKRLFQMINELPTIFEVVSGNAKQSKDLSVNNNNSKSKPSGVKSRQSESLSKVAKMSSPPPKEEEEEEDESEDESEDDEQGAVCGACGDNYGTDEFWICCDACEKWFHGKCVKITPAKAEHIKHYKCPTCSNKRARP
For the molecule B5, in test [3], the binding entry is on record as “binds”.

B6: RFP-AL6 (protein, UniProt Q8S8M9 1-256)
chain: B5 chain
With B6, in test [2], the binding entry is “binds”.

B7: GFP-AL6 (protein, UniProt Q8S8M9 1-256)
chain: B5 chain
As for B7, the binding result in test [4] and in test [5] was “binds” in each case.

B8: RFP-AL1 (protein, UniProt Q9FFF5 1-241)
chain: MAAESSNPRTVEEIFKDFSGRRSGFLRALSVDVDKFYSLCDPEMENLCLYGHPNGTWEVNLPAEEVPPELPEPALGINFARDGMQRKDWLSLVAVHSDCWLLSVSSYFGARLNRNERKRLFSLINDLPTLFEVVTGRKPIKDGKPSMDLGSKSRNGVKRSIEGQTKSTPKLMEESYEDEDDEHGDTLCGSCGGNYTNDEFWICCDVCERWYHGKCVKITPAKAESIKQYKCPSCCTKKGRQ
For B8, the binding entry in test [2] was “binds”.

B9: AL1 (protein, UniProt Q9FFF5 1-241)
chain: B8 chain
As for B9, in test [3], the binding entry is reported as “binds”.

B10: AL7 (protein, UniProt Q8LA16 1-252)
chain: MEGIQHPIPRTVEEVFSDFRGRRAGLIKALSTDVQKFYHQCDPEKENLCLYGLPNETWEVNLPVEEVPPELPEPALGINFARDGMQEKDWISLVAVHSDSWLISVAFYFGARFGFGKNERKRLFQMINDLPTIFEVVTGNAKQSKDQSANHNSSRSKSSGGKPRHSESHTKASKMSPPPRKEDESGDEDEDDEQGAVCGACGDNYGGDEFWICCDACEKWFHGKCVKITPAKAEHIKHYKCPSCTTSKKMKA
B10: the binding entry in test [3] is given as “binds”.

B11: RFP-AL7 (protein, UniProt Q8LA16 1-252)
chain: B10 chain
For the molecule B11, in test [2], the binding result is listed as “binds”.

B12: AtRING1aN (aa 1-218) (domain or fragment, UniProt Q9FKW0 1-218)
chain: MSVKNNSFSSAEIPDVADQPRDRFNPEATQDLQEKDETKEEKEGDEEVKHDEAEEDQEVVKPNDAEEDDDGDDAEEDEEEEVEAEEDEEAEEEEEEEEEEEEEEEDSKERSPSSISGDQSEFMEIDLGEIRKDVQCPICLGIIKKTRTVMECLHRFCRECIDKSMRLGNNECPACRKHCASRRSLRDDPKFDALIAALFTNIDSYEEEELAFHEDEMA
Regarding B12, the binding result in test [3] is given as “binds”.

The values above are taken from paper PMC3900384.
